# Data from PubChem BioAssay AID2517 (National Center for Advancing Translational Sciences (NCATS), 2010).
# Sequences of proteins named here, by UniProt entry; tags and fusion partners are left off.
# UniProt P27695, whole entry, looked up: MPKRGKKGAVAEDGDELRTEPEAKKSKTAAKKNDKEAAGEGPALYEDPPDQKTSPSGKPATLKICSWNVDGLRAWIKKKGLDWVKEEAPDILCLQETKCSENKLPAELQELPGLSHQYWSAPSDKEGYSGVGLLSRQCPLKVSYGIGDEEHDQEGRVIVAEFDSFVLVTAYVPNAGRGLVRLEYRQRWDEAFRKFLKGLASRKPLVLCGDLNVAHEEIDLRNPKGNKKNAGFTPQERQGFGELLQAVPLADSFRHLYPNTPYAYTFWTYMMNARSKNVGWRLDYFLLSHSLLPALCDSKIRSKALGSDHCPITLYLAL
# Screen size: about 350,000 compounds; about 1,200 (0.34%) were called active. The inconclusive results got no clear call from the source; some entries with a clear call stand among them for comparison. Calls follow the shape of the dose curve; as a rule, active = well fitted inhibition curve with a large enough effect; inconclusive = small, poorly fitted or top-dose-only effect; inactive = no such curve, though single readings can be large or run the other way. A potency beside an inconclusive call is a rough fit, not a confirmed value.
# Molecular target: DNA repair nuclease/redox regulator APEX1 (Homo sapiens) (UniProt P27695)
# Test: qHTS Assay for Inhibitors of the Human Apurinic/apyrimidinic Endonuclease 1 (APE1); also: nearly all actives have a fitted effect of over 55% in size;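 as to activity change, negative = inhibition: plate controls were vehicle for no effect and reference inhibitor for full effect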
# Conditions: recombinant APE1, TAMRA/BHQ-2 abasic DNA cleavage fluorescence; activity change, negative = inhibition: at 65.8 µM (top of the series)
# How it was run: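 Enzyme (0.75 nM final) and test compound are incubated 15 min at room temperature before adding 50 nM quenched THF abasic-site duplex. Cleavage dequenches TAMRA, followed at 525/598 nm over three reads one minute apart.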
# Potency is read from the fitted curve at half-maximal effect.
Structure (SMILES),Potency,"activity change, negative = inhibition"
CN(Cc1ccccc1F)c1nc(-c2cccs2)nc2ccccc12,"inconclusive: 0.0112 µM [inhibitor, full curve, poor fit]",–
COC(=O)c1[nH]c2ccc(C)cc2c1NS(=O)(=O)c1ccc(F)c(C)c1,"inconclusive: 0.0009 µM [inhibitor, full curve, poor fit]",–
COc1ccc(CNC(=S)Nc2cc(C)ccc2C)cc1,"inconclusive: 3.98 µM [inhibitor, full curve, poor fit]",–
O=C(CSc1nnc(-c2cccc(F)c2)o1)Nc1nncs1,"inconclusive: 31.6 µM [inhibitor, single point]",–
CCC1CCCCN1S(=O)(=O)c1ccc2[nH]c(=O)ccc2c1 (centres undefined),"inconclusive: 26.7 µM [inhibitor, single point]",–
O=C(COC(=O)c1ccccc1O)NCc1ccco1,"inconclusive: 8.44 µM [inhibitor, partial curve]",–
Cc1occc1C(=O)OCC(=O)Nc1ccc(F)cc1,"inconclusive: 17.8 µM [inhibitor, partial curve]",–
CC(C)NS(=O)(=O)c1ccc(NC(=S)NC(=O)c2ccc(-c3ccccc3)cc2)cc1,inactive,–
CC(NC(=O)CN(C)S(=O)(=O)c1cnc[nH]1)c1ccccc1 (centres undefined),"inconclusive: 31.6 µM [inhibitor, single point]",–
COc1cc2[nH]c(=O)n(CCC(=O)N3CCN(c4cc(Cl)ccc4C)CC3)c(=O)c2cc1OC,inactive,–
Cc1nc(N)sc1-c1csc(Nc2ncccn2)n1,"inconclusive: 31.6 µM [inhibitor, single point]",–
Cc1cc(C)cc(N=Cc2[nH]c3ccc(Br)c(Cl)c3c2O)c1,"inconclusive: 5.01 µM [inhibitor, single point]",–
O=C1S/C(=C\c2cccs2)C(=O)N1c1ccc(O)cc1,inactive,–
Cc1ccc(-c2nc(SCC(=O)NCC3CCCO3)c(-c3ccc(Cl)cc3)[nH]2)cc1 (centres undefined),"inconclusive: 2.82 µM [inhibitor, partial curve]",–
Cc1ccc(NC(=O)CSc2ccccc2NC(=O)c2ccccc2Cl)cc1Cl,"inconclusive: 25.1 µM [inhibitor, single point]",–
C=CCN(CC=C)S(=O)(=O)c1ccc(NC(=S)NC(=O)c2ccc(-c3ccccc3)cc2)cc1,"inconclusive: 8.91 µM [inhibitor, single point]",–
O=C(NC(=S)Nn1cnc2c(cnn2-c2ccccc2)c1=O)c1ccc(Cl)cc1,"inconclusive: 50.1 µM [inhibitor, partial curve, poor fit]",–
CC(C)(C)NC(=O)c1ccccc1NC(=O)C1CCCO1 (centres undefined),"inconclusive: 89.1 µM [inhibitor, partial curve, poor fit]",–
C=CCn1c(SCC(=O)NCc2ccco2)nnc1-c1ccc2ccccc2n1,"inconclusive: 44.7 µM [inhibitor, single point]",–
COC(=O)c1ccc(COC(=O)CNC(=O)c2ccco2)cc1,"inconclusive: 44.7 µM [inhibitor, single point]",–
COc1cccc(/C=C/C(=O)OCC(=O)Nc2cccc(S(=O)(=O)N3CCOCC3)c2)c1OC,"inconclusive: 22.4 µM [inhibitor, single point]",–
O=C(COC(=O)c1cccnc1Cl)NCc1ccco1,"inconclusive: 39.8 µM [inhibitor, single point]",–

Structure (SMILES),Potency,"activity change, negative = inhibition"
O=C(NNC(=S)NC1CC2C=CC1C2)c1ccncc1 (centres undefined),"inconclusive: 3.55 µM [inhibitor, single point]",–
Cc1cc(C)n(CCc2nc(-c3ccco3)cs2)n1,"inconclusive: 31.6 µM [inhibitor, single point]",–
O=C(N/N=C/c1ccc(C(=O)O)cc1)C(=O)N1CCCCCC1,"inconclusive: 3.77 µM [inhibitor, single point]",–
C[C@@H]1C(=O)O[C@H]2[C@H](O)[C@@]34[C@H]5CC(C(C)(C)C)[C@]36[C@H](OC(=O)[C@H]6O)O[C@]4(C(=O)O5)[C@@]12O (some centres undefined),"inconclusive: 20 µM [inhibitor, partial curve]",–
O=C(CN1C(=O)S/C(=C/c2cccs2)C1=O)N1CCCC1,inactive,–
COc1cccc2cc(-c3cc(=O)oc4ccc(OCC(C)=O)cc34)oc12,inactive,–
NC(=O)NC(=O)CSc1nc(-c2ccccc2)c(-c2ccccc2)n1CC1CCCO1 (centres undefined),"inconclusive: 44.7 µM [inhibitor, single point]",–
Cc1ccc(NS(=O)(=O)c2ccc3c(c2)CCC(=O)N3)cc1C,"inconclusive: 31.6 µM [inhibitor, partial curve, poor fit]",–
COCCn1c(SCc2nc3sc(C(=O)OC)c(C)c3c(=O)[nH]2)nc2ccccc21,inactive,–
C=CCn1c(Cc2nc3ccc(Cl)cc3[nH]2)n[nH]c1=S,"inconclusive: 1.78 µM [inhibitor, partial curve]",–
CCCCCn1c(N)c(-c2nc3ccccc3s2)c2c([N+](=O)[O-])nn(CC)c(=O)c21,inactive,–
Cc1ccc(-c2nc3cnccn3c2Nc2ccc3c(c2)OCO3)o1,"inconclusive: 31.6 µM [inhibitor, single point]",–
O=C(Nc1ccc2ccccc2c1)[C@@H]1C[C@H]1[C@@H](NP(=O)(c1ccccc1)c1ccccc1)c1ccccc1,"inconclusive: 10 µM [inhibitor, partial curve, poor fit]",–
C/C(CCN1CCCCc2nc(C)c(C)cc21)=N\OC[C@@H](C)[C@H](OCc1ccccc1)C(C)C,"inconclusive: 8.91 µM [inhibitor, single point]",–
COCc1cc(C(C)=O)ccc1OCC(=O)Nc1ccc(NC(C)=O)cc1,"inconclusive: 44.7 µM [inhibitor, single point]",–
O=C(Oc1c(-c2ccccc2)c(=O)n2c3c(cccc13)CC2)c1ccc(Cl)cc1,"inconclusive: 5.01 µM [inhibitor, single point]",–
CC(C)CC(COCc1ccc(C(F)(F)F)cc1)N1CCN(C(=O)c2ccc(C(F)(F)F)cc2)CCC1=O (centres undefined),"inconclusive: 7.94 µM [inhibitor, single point]",–
Cc1ccc(C)c(S(=O)(=O)N2CCN(CC(=O)Nc3ccc4c(c3)CCC4)CC2)c1,"inconclusive: 39.8 µM [inhibitor, single point]",–
Cc1ccc(C(=O)Nc2ccc3c(c2)OCCO3)c(C)c1,"inconclusive: 0.844 µM [inhibitor, single point]",–
O=C(O)c1cc2c(ccc3ccccc32)o1,"inconclusive: 44.7 µM [inhibitor, single point]",–
CC(=O)NCc1ccc(-c2csc(N)n2)s1,"inconclusive: 39.8 µM [inhibitor, single point]",–
Cc1ccnc(NC(=O)Nc2cccc(F)c2)n1,"inconclusive: 25.1 µM [inhibitor, single point]",–

Structure (SMILES),Potency,"activity change, negative = inhibition"
NC(=O)C1CCN(C(=O)CNC(=O)c2ccccc2)CC1,"inconclusive: 44.7 µM [inhibitor, single point]",–
O=C(N/N=C/c1ccco1)C1CC1(c1ccccc1)c1ccccc1 (centres undefined),"inconclusive: 35.5 µM [inhibitor, single point]",–
COc1cc(C(C)=O)ccc1OCC(=O)Nc1ccc(C)c(S(=O)(=O)N2CCCCCC2)c1,inactive,–
Oc1ccc(/C=N/Nc2ccnc3cc(Cl)ccc23)cc1O,"inconclusive: 5.01 µM [inhibitor, partial curve]",–
Cc1ccc(N(CCC#N)C(=O)CSc2nc3ccccc3c(=O)[nH]2)cc1,"inconclusive: 33.6 µM [inhibitor, single point]",–
NNC(=O)CSc1nnc(-c2ccccc2)n1-c1ccccc1,"inconclusive: 5.97 µM [inhibitor, single point]",–
COc1ccc(NC(=O)c2cc3c(-c4ccc(OC)c(OC)c4)nn(C)c3s2)cc1OC,"inconclusive: 15.8 µM [inhibitor, partial curve]",–
CC(C)[C@@H](OCc1ccccc1)[C@H](C)/C=N\OC[C@@H](C)[C@H](OCc1ccccc1)C(C)C,–,inactive: -2.11% [at 12.4 µM]
O=C(COC(=O)c1nc(Cl)ccc1Cl)NCc1ccccc1,"inconclusive: 3.55 µM [inhibitor, single point]",–
CCn1c(SCC(=O)Nc2ccc(OCc3ccccc3)cc2)nnc1-c1ccco1,"inconclusive: 44.7 µM [inhibitor, single point]",–
Cc1ccc(-c2csc(Nc3ccc(S(N)(=O)=O)cc3)n2)o1,inactive,–
COc1ccc2c(c1)N(C)/C(=C1/SC(=NCc3ccccc3)N(c3ccccc3)C1=O)S2,"inconclusive: 50.1 µM [inhibitor, single point]",–
C=CCOc1ccccc1CN1CCCN(C)CC1,"inconclusive: 23.8 µM [inhibitor, single point]",–
COc1ccc(NC(=O)CC2C(=O)N(c3ccc(OC)cc3)C(=O)N2CCc2cccs2)cc1 (centres undefined),"inconclusive: 14.1 µM [inhibitor, partial curve, poor fit]",–
O=C(NC1CC1)C1CCN(S(=O)(=O)c2cc(Cl)ccc2Cl)CC1,inactive,–
O=C(O)c1cccc(-c2ccc(/C=N/NC(=O)C3COc4ccccc4O3)o2)c1 (centres undefined),inactive,–
Cc1nn(Cc2ccc(F)cc2)c(C)c1NC(=O)c1noc2c1CCCCC2,"inconclusive: 3.98 µM [inhibitor, full curve]",–
COc1ccc(CNC(=O)C2=CCN(S(=O)(=O)c3ccc(C)cc3)CC2)cc1,"inconclusive: 0.794 µM [inhibitor, full curve]",–
O=c1cc(O)c2c(=O)n(-c3ccccc3)c3ccccc3c2o1,inactive,–
O=C(O)C1Cc2ccccc2CN1C(=O)CCl (centres undefined),inactive,–
